Source: publication PMC11139901
Results are given in words; binding and its absence hold for the method and conditions named. Binding seen in cells or lysates may run through a third protein. Some results given as binding are weak or reduced against the parent protein; the word gives no strength. Each block holds one binder with its values, some of them ahead of it.

What was measured:
[1] = target: T1, Dbr1 (as in the reciprocal co-IP with AQR in 293T cells) (human), Q9UK59; experiment: co-IP; reciprocal co-IP of Dbr1 and AQR in 293T cells, western blot of both immunoprecipitations; n = 3; conditions: remark: other sources report otherwise
T1 chain: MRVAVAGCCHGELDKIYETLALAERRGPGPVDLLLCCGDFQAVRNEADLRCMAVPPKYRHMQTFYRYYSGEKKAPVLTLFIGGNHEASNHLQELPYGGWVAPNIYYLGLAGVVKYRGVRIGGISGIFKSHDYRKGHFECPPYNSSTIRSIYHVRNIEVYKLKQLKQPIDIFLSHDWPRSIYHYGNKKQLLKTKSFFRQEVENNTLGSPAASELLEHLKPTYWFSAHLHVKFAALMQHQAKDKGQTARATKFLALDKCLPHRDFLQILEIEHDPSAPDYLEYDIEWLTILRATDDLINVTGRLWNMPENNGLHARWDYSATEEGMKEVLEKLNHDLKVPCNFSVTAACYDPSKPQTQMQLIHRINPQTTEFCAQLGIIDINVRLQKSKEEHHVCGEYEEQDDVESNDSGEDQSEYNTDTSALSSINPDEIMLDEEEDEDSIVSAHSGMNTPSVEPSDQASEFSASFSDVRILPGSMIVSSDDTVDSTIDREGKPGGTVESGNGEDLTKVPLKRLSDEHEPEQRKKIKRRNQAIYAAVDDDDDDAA

[2] = target: T2, AQR (human (endogenous in 293T)), O60306; experiment: as above; conditions: remark: other sources report otherwise
T2 chain: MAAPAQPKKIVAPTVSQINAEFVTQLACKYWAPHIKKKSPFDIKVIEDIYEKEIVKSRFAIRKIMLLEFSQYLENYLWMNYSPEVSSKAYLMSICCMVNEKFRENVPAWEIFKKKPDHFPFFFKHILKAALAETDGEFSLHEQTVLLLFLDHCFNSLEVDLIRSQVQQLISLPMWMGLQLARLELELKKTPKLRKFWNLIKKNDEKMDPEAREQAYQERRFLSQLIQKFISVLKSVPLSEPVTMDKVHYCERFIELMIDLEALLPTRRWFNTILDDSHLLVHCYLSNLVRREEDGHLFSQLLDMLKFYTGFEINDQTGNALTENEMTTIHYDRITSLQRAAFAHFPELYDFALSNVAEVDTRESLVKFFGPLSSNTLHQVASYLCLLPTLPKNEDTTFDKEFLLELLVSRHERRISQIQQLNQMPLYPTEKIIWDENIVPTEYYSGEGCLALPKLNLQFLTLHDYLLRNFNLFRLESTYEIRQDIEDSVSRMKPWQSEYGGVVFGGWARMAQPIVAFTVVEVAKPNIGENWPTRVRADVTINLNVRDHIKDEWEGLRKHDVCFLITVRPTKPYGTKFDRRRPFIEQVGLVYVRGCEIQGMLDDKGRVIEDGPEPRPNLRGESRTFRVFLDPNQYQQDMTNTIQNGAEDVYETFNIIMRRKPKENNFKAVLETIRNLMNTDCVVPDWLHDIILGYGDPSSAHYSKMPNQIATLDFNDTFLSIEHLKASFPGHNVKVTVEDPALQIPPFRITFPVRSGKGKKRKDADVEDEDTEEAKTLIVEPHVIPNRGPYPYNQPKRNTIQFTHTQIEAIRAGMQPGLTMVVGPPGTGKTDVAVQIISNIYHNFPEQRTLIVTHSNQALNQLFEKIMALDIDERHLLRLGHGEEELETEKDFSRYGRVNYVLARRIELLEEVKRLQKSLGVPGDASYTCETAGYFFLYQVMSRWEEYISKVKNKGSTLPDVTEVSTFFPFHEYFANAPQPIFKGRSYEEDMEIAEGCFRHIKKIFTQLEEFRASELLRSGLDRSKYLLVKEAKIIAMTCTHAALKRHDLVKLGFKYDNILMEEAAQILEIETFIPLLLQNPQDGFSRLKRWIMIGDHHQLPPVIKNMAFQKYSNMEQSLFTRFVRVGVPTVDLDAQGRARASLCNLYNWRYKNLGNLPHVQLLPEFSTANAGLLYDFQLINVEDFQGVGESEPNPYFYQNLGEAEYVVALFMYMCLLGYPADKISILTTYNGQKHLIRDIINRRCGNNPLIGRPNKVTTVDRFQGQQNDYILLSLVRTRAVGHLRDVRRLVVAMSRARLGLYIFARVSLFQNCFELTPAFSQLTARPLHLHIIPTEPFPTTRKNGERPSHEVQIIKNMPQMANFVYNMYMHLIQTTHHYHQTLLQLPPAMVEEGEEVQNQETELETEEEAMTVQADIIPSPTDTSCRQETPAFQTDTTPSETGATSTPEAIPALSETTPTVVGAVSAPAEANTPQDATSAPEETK

binding [1]: binds
B1: AQR, O60306 1-1485 (protein)
chain: T2 chain

binding [2]: binds
B2: Dbr1 (as in the reciprocal co-IP with AQR in 293T cells), Q9UK59 1-544 (enzyme)
chain: T1 chain
